Experimental data as given in the supplement of paper PMC6078165.

System: HCC1143
Experiment: relative JC-1 red fluorescence (viability) vs pre-drug, coculture with fibroblast (fraction); higher = more viable cancer cells
Procedure: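 JC-1 labelled TNBC cells cocultured 1:1 (1,500 cells each) with CellTrace Violet stained primary or stromal fibroblasts in 384-well plates in FluoroBrite medium, treated with one of 42 anticancer drugs at 0.1, 1, 10 or 100 uM. JC-1 red fluorescence (mitochondrial integrity in cancer cells only) was read by plate reader every 8 h for 72 h. Values are normalised to each well's pre-drug value. The stock of one drug was tenfold lower, so its dose labels may be too high.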

COc1cc([C@@H]2c3cc4c(cc3[C@@H](O[C@@H]3O[C@@H]5CO[C@@H](c6cccs6)O[C@H]5[C@H](O)[C@H]3O)[C@H]3COC(=O)[C@H]23)OCO4)cc(OC)c1O [Teniposide]
relative JC-1 red fluorescence
Conditions	8 h	16 h	24 h	32 h	40 h	48 h	56 h	64 h	72 h
0.1 µM, coculture fibroblast: C12385	0.8431	0.797	0.73	0.66	0.599	0.563	0.529	0.493	0.489
0.1 µM, coculture fibroblast: H6013	0.76	0.712	0.67	0.653	0.587	0.571	0.538	0.517	0.481
0.1 µM, coculture fibroblast: H6019	0.836	0.767	0.743	0.686	0.645	0.637	0.588	0.55	0.513
0.1 µM, coculture fibroblast: H6076	0.771	0.7708	0.7252	0.668	0.625	0.597	0.566	0.5453	0.548
0.1 µM, coculture fibroblast: H6231	0.801	0.785	0.752	0.704	0.673	0.647	0.609	0.574	0.56
0.1 µM, coculture fibroblast: HADF	0.727	0.683	0.651	0.661	0.57	0.548	0.52	0.497	0.463
0.1 µM, coculture fibroblast: HCFa	0.766	0.675	0.63	0.595	0.513	0.476	0.431	0.403	0.372
0.1 µM, coculture fibroblast: HCPF	0.781	0.735	0.71	0.701	0.645	0.635	0.609	0.588	0.588
0.1 µM, coculture fibroblast: HHSteC	0.8014	0.74634	0.712	0.6724	0.617	0.591	0.547	0.528	0.473
0.1 µM, coculture fibroblast: HMF	0.802	0.798	0.744	0.689	0.65	0.628	0.582	0.562	0.57
0.1 µM, coculture fibroblast: HPFa	0.869	0.809	0.7842	0.694	0.6449	0.618	0.55	0.508	0.47
0.1 µM, coculture fibroblast: HUF	0.8573	0.796	0.742	0.673	0.609	0.578	0.538	0.506	0.488
0.1 µM, coculture fibroblast: Hs5	0.862	0.896	0.849	0.804	0.75	0.713	0.68	0.645	0.632
0.1 µM, coculture fibroblast: Hs27A	0.6967	0.634	0.595	0.607	0.487	0.485	0.44	0.4204	0.3796
0.1 µM, coculture fibroblast: Hs343T	0.7899	0.798	0.753	0.702	0.6644	0.639	0.601	0.576	0.564
0.1 µM, coculture fibroblast: WS1	0.7982	0.7168	0.6514	0.567	0.511	0.46662	0.417	0.379	0.358
1 µM, coculture fibroblast: C12385	0.828	0.761	0.705	0.647	0.585	0.554	0.507	0.457	0.435
1 µM, coculture fibroblast: H6013	0.785	0.725	0.698	0.68	0.632	0.634	0.603	0.594	0.539
1 µM, coculture fibroblast: H6019	0.821	0.731	0.68	0.617	0.57	0.537	0.491	0.453	0.421
1 µM, coculture fibroblast: H6076	0.7992	0.775	0.7317	0.692	0.642	0.621	0.586	0.579	0.582
1 µM, coculture fibroblast: H6231	0.8085	0.779	0.718	0.65	0.629	0.594	0.555	0.515	0.509
1 µM, coculture fibroblast: HADF	0.782	0.732	0.699	0.693	0.6	0.578	0.537	0.511	0.473
1 µM, coculture fibroblast: HCFa	0.796	0.718	0.675	0.654	0.577	0.558	0.511	0.48	0.434
1 µM, coculture fibroblast: HCPF	0.81	0.805	0.773	0.694	0.701	0.682	0.655	0.623	0.608
1 µM, coculture fibroblast: HHSteC	0.837	0.789	0.756	0.717	0.668	0.65	0.622	0.603	0.546
1 µM, coculture fibroblast: HMF	0.804	0.8071	0.743	0.671	0.659	0.632	0.591	0.551	0.534
1 µM, coculture fibroblast: HPFa	0.877	0.796	0.782	0.691	0.646	0.617	0.555	0.521	0.488
1 µM, coculture fibroblast: HUF	0.857	0.777	0.733	0.66	0.616	0.583	0.536	0.5	0.47
1 µM, coculture fibroblast: Hs5	0.861	0.846	0.846	0.842	0.789	0.773	0.767	0.758	0.767
1 µM, coculture fibroblast: Hs27A	0.766	0.741	0.729	0.784	0.69	0.718	0.708	0.71	0.686
1 µM, coculture fibroblast: Hs343T	0.811	0.776	0.727	0.682	0.628	0.6038	0.565	0.54	0.527
1 µM, coculture fibroblast: WS1	0.8036	0.738	0.707	0.653	0.618	0.575	0.527	0.492	0.47
10 µM, coculture fibroblast: C12385	0.887	0.86	0.83	0.791	0.733	0.73	0.716	0.701	0.703
10 µM, coculture fibroblast: H6013	0.7732	0.736	0.697	0.694	0.661	0.666	0.643	0.639	0.574
10 µM, coculture fibroblast: H6019	0.8489	0.7957	0.7596	0.6984	0.642	0.621	0.583	0.566	0.557
10 µM, coculture fibroblast: H6076	0.8192	0.8113	0.7894	0.73	0.693	0.677	0.664	0.639	0.647
10 µM, coculture fibroblast: H6231	0.823	0.827	0.762	0.686	0.657	0.627	0.597	0.5613	0.559
10 µM, coculture fibroblast: HADF	0.761	0.732	0.697	0.696	0.626	0.613	0.596	0.585	0.538
10 µM, coculture fibroblast: HCFa	0.799	0.724	0.662	0.637	0.568	0.542	0.503	0.474	0.423
10 µM, coculture fibroblast: HCPF	0.8131	0.872	0.808	0.68	0.712	0.685	0.647	0.61	0.605
10 µM, coculture fibroblast: HHSteC	0.858	0.802	0.751	0.718	0.637	0.609	0.57	0.547	0.503
10 µM, coculture fibroblast: HMF	0.818	0.851	0.788	0.715	0.715	0.683	0.651	0.625	0.612
10 µM, coculture fibroblast: HPFa	0.8903	0.8227	0.7955	0.714	0.672	0.656	0.61	0.594	0.576
10 µM, coculture fibroblast: HUF	0.84514	0.777	0.73	0.664	0.627	0.627	0.598	0.59	0.584
10 µM, coculture fibroblast: Hs5	0.855	0.899	0.843	0.784	0.733	0.6913	0.6514	0.625	0.6305
10 µM, coculture fibroblast: Hs27A	0.735	0.679	0.638	0.66	0.555	0.563	0.545	0.541	0.493
10 µM, coculture fibroblast: Hs343T	0.8138	0.85	0.771	0.671	0.6266	0.587	0.544	0.513	0.496
10 µM, coculture fibroblast: WS1	0.8359	0.761	0.708	0.634	0.596	0.586	0.566	0.554	0.548
100 µM, coculture fibroblast: C12385	0.858	0.81	0.764	0.766	0.8	0.77	0.772	0.735	0.681
100 µM, coculture fibroblast: H6013	0.8	0.765	0.759	0.784	0.762	0.795	0.778	0.78	0.69
100 µM, coculture fibroblast: H6019	0.892	0.849	0.8	0.745	0.72	0.717	0.69	0.695	0.68
100 µM, coculture fibroblast: H6076	0.834	0.797	0.77	0.769	0.717	0.733	0.75	0.772	0.808
100 µM, coculture fibroblast: H6231	0.847	0.8726	0.79	0.748	0.798	0.8079	0.769	0.7351	0.7478
100 µM, coculture fibroblast: HADF	0.767	0.728	0.721	0.751	0.694	0.72	0.712	0.701	0.623
100 µM, coculture fibroblast: HCFa	0.855	0.812	0.79	0.833	0.87	0.898	0.876	0.863	0.807
100 µM, coculture fibroblast: HCPF	0.859	0.86468	0.853	0.798	0.843	0.821	0.794	0.783	0.787
100 µM, coculture fibroblast: HHSteC	0.875	0.856	0.837	0.844	0.844	0.868	0.86	0.831	0.744
100 µM, coculture fibroblast: HMF	0.8554	0.886	0.858	0.81	0.81	0.84	0.847	0.842	0.817
100 µM, coculture fibroblast: HPFa	0.877	0.794	0.785	0.736	0.734	0.736	0.712	0.716	0.718
100 µM, coculture fibroblast: HUF	0.892	0.852	0.814	0.761	0.735	0.75	0.716	0.72	0.715
100 µM, coculture fibroblast: Hs5	0.902	0.9221	0.9206	0.916	0.87	0.836	0.809	0.795	0.822
100 µM, coculture fibroblast: Hs27A	0.778	0.7383	0.7573	0.839	0.798	0.876	0.875	0.871	0.771
100 µM, coculture fibroblast: Hs343T	0.882	0.881	0.8538	0.822	0.7919	0.814	0.806	0.8246	0.8505
100 µM, coculture fibroblast: WS1	0.863	0.807	0.787	0.748	0.75	0.768	0.753	0.753	0.762

The reference is the same well before dosing, and untreated signal decays as well.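 Fibroblast labels name human fibroblasts: mostly primary ones from tissues such as uterus (C12385, HUF), lung (H6013), bone (Hs27A), adrenal (HADF) and skin (WS1), plus mammary HMF and breast cancer-associated Hs343T. The cancer cells are basal-like or mesenchymal-like triple-negative breast cancer lines. The paper calls a changed response a hit when it shifts by more than 3x the replicate standard deviation. The tissue of the other fibroblasts is not given here.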
